# Results as given in US20220119522A1.
# Key:
# [1] = biological target: cynomolgus soluble TREM2 (sTREM2) (cynomolgus); experiment: MSD assay: sTREM2 captured from healthy cynomolgus CSF, sulfo-tagged antibody titrated
# [2] = biological target: recombinant cynomolgus TREM2 ECD (cynomolgus); experiment: SPR (Biacore)
# [3] = biological target: recombinant cynomolgus TREM2 ECD (cynomolgus); experiment: SPR (Biacore), antibody captured via anti-human Fab, recombinant cynomolgus TREM2 injected
Binder,binding [1],binding [2],binding [3]
"CL0020188-4 (antibody, V domains shown) VH: EVQLVESGGGLVQPGGSLRLSCAGSGFTFTDFYMSWVRQAPGKGPEWLSVIRNKANGYTAGYNPSVKGRFTISRDNSKNTLYLQMNSLRAEDTAVYYCARLTYGFDYWGQGTLVTVSS VL: DIVMTQTPLSLPVTPGEPASISCQSSKSLLHSTGKTYLNWYLQKPGQSPQLLIYWMSTRASGVPDRFSGSGSGTDFTLKISRVEAEDVGVYYCQQFLEYPFTFGQGTKVEIK",binds,binds,
"CL0020188-7 (antibody, V domains shown) VH: EVQLVESGGGLVQPGGSLRLSCAASGFTFTDFYMSWVRQAPGKGLEWVSVIRNKANAYTAGYNPSVKGRFTISRDNSKNTLYLQMNSLRAEDTAVYYCARLTYGFDYWGQGTLVTVSS VL: DIVMTQTPLSLPVTPGEPASISCQSSKSLLHSTGKTYLNWYLQKPGQSPQLLIYWMSTRASGVPDRFSGSGSGTDFTLKISRVEAEDVGVYYCQQFLEYPFTFGQGTKVEIK",binds,binds,
"CL0020141 (antibody, V domains shown) VH: EVTLVESGGGLVQPGGSLRLSCATSGFTFTDYYMSWVRQPPGKALEWLGFIRDKANGYTTDYSASVKGRFTISRDNSQNILYLQMNTLRAEDSATYYCSRLLRAQGFAYWGQGTLVTVSA VL: DIVMSQSPSSLGVSIGEKVIMSCTSGQSLLYSNNQKNYLAWYQQKPGQSPKLLIYWASTRESGVPDRFTGSGSGTDFTLTINSVKAEDLAVYYCQQYYRNPFTFGSGTKLEIK",,,no binding

# No constants are given. Whether binding was seen depends on the method and setting. For some assays here: A result given as binding can be weak or reduced; the word gives no strength.
